Laboratory results: the supplement of paper PMC7661543
± gives the standard deviation of the averaged measurements. The effect of the compound repeats well; differences between the knockouts mostly do not.

Tested on: ZR-75-1
Experiment: relative cell number vs DMSO control (72 h) (% of DMSO); higher = less growth inhibition (more cells)
Method: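 QMAP-Seq: a pool of 5 breast cancer cell lines (ZR-75-1, SKBR3, HCC-38, MDA-MB-231, BT-20), each carrying 12 doxycycline-inducible Cas9 sgRNA perturbations (11 knockouts plus non-targeting sgNT), was treated with compounds for 72 h at four 10-fold doses (10 nM-10 uM or 1 nM-1 uM range). Barcodes were amplified and sequenced, and cell number was interpolated from 293T spike-in standard curves. The result is expressed as % of the median of DMSO wells. Two biological replicates.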

[1] = sgRNA knockout: sgATF3, 1000 nM
[2] = sgRNA knockout: sgATF3, 10000 nM
[3] = sgRNA knockout: sgATF4, 1000 nM
[4] = sgRNA knockout: sgATF4, 10000 nM
[5] = sgRNA knockout: sgATF6, 1000 nM
[6] = sgRNA knockout: sgATF6, 10000 nM
[7] = sgRNA knockout: sgATG7, 1000 nM
[8] = sgRNA knockout: sgATG7, 10000 nM
[9] = sgRNA knockout: sgERN1, 1000 nM
[10] = sgRNA knockout: sgERN1, 10000 nM
[11] = sgRNA knockout: sgHSF2, 1000 nM
[12] = sgRNA knockout: sgHSF2, 10000 nM
[13] = sgRNA knockout: sgNFE2L2, 10 nM
[14] = sgRNA knockout: sgNFE2L2, 100 nM
[15] = sgRNA knockout: sgNFE2L2, 1000 nM
[16] = sgRNA knockout: sgNFE2L2, 10000 nM
[17] = sgRNA knockout: sgSLC35F2, 10 nM
[18] = sgRNA knockout: sgSLC35F2, 100 nM
[19] = sgRNA knockout: sgSLC35F2, 1000 nM
[20] = sgRNA knockout: sgSLC35F2, 10000 nM
[21] = sgRNA knockout: sgXBP1, 1000 nM
[22] = sgRNA knockout: sgXBP1, 10000 nM

SMILES	relative cell number (sgRNA knockout: sgATF3, 10 nM)	relative cell number (sgRNA knockout: sgATF3, 100 nM)	relative cell number [1]	relative cell number [2]	relative cell number (sgRNA knockout: sgATF4, 10 nM)	relative cell number (sgRNA knockout: sgATF4, 100 nM)	relative cell number [3]	relative cell number [4]	relative cell number (sgRNA knockout: sgATF6, 10 nM)	relative cell number (sgRNA knockout: sgATF6, 100 nM)	relative cell number [5]	relative cell number [6]	relative cell number (sgRNA knockout: sgATG7, 10 nM)	relative cell number (sgRNA knockout: sgATG7, 100 nM)	relative cell number [7]	relative cell number [8]	relative cell number (sgRNA knockout: sgERN1, 10 nM)	relative cell number (sgRNA knockout: sgERN1, 100 nM)	relative cell number [9]	relative cell number [10]	relative cell number (sgRNA knockout: sgHSF2, 10 nM)	relative cell number (sgRNA knockout: sgHSF2, 100 nM)	relative cell number [11]	relative cell number [12]	relative cell number [13]	relative cell number [14]	relative cell number [15]	relative cell number [16]	relative cell number [17]	relative cell number [18]	relative cell number [19]	relative cell number [20]	relative cell number (sgRNA knockout: sgXBP1, 10 nM)	relative cell number (sgRNA knockout: sgXBP1, 100 nM)	relative cell number [21]	relative cell number [22]
CNC(=O)c1cc(Oc2ccc(NC(=O)Nc3ccc(Cl)c(C(F)(F)F)c3)c(F)c2)ccn1 [Regorafenib]	82.7 ± 8	119 ± 15	77.2 ± 5.6	25.5 ± 10	101 ± 45	132 ± 25	100 ± 8.7	29.2 ± 18	98.1 ± 41	108 ± 9.9	118 ± 10	28.5 ± 10	90.79 ± 0.67	130 ± 8.6	113 ± 1.2	24.3 ± 5.3	97.28 ± 0.7	104 ± 29	90.2 ± 19	31.2 ± 5.3	102 ± 11	125 ± 15	96.5 ± 1	25 ± 3.1	104 ± 7.5	106 ± 9.6	121 ± 1.9	28.1 ± 7.8	48.2 ± 18	73.1 ± 26	109 ± 26	12.3 ± 3.3	98.5 ± 22	92.4 ± 25	118 ± 1.6	30.7 ± 5.8
O=c1[nH]cc(F)c(=O)[nH]1 [5-Fluorouracil]	138 ± 43	111 ± 19	58.4 ± 23	45.9 ± 12	80.7 ± 2.9	103 ± 30	55.9 ± 16	54.8 ± 3	55.8 ± 4.5	71 ± 1.2	59 ± 1.8	36.8 ± 9	101 ± 1.3	110 ± 57	66.4 ± 9.6	27.4 ± 4.1	83.8 ± 7.5	104 ± 29	79.4 ± 13	47 ± 0.24	107 ± 28	133 ± 56	70.3 ± 2.2	31.3 ± 6	99.8 ± 7.1	93.7 ± 6.2	75.5 ± 6.3	33.2 ± 17	77.4 ± 14	146 ± 7.3	43.2 ± 4.9	47.4 ± 16	103 ± 22	103 ± 30	75.4 ± 22	29.9 ± 2.6
O=P1(N(CCCl)CCCl)NCCCO1 (stereo not given) [Cyclophosphamide]	123 ± 18	89.8 ± 31	107 ± 25	98.6 ± 2.5	107 ± 14	105 ± 52	91.5 ± 20	67.7 ± 15	78.5 ± 5.7	99.8 ± 3.6	89.1 ± 7	90.5 ± 4	103 ± 71	81.1 ± 8.4	100 ± 56	93.3 ± 5.8	98 ± 2.3	103.9 ± 0.9	93.7 ± 39	91.8 ± 32	104 ± 19	102 ± 11	93.6 ± 11	91.7 ± 6.4	140 ± 11	104 ± 10	78.4 ± 6.4	118 ± 12	104 ± 11	101 ± 23	105 ± 26	84.1 ± 14	116 ± 2.6	99.13 ± 0.92	97.5 ± 32	91.4 ± 10
Nc1ccccc1NC(=O)c1ccc(CNC(=O)OCc2cccnc2)cc1 [Entinostat]	144 ± 22	116 ± 3.8	29.8 ± 7.2	33.3 ± 3.2	123 ± 45	154 ± 76	37.1 ± 4.8	40.1 ± 10	85.7 ± 20	125 ± 32	33.6 ± 4.5	30.4 ± 9.3	101 ± 30	128 ± 26	27.5 ± 4.3	36 ± 5.8	103 ± 4.8	94.8 ± 13	43.2 ± 17	30.9 ± 14	119 ± 6.2	105 ± 6.3	33 ± 2.4	36.4 ± 0.59	98.2 ± 8.2	122 ± 15	32.9 ± 5.6	31 ± 7.4	98.8 ± 75	129 ± 86	56.4 ± 6.9	30.8 ± 24	91.5 ± 7	107 ± 9.7	41.7 ± 1.6	28.1 ± 5.8
O=C(NOCC(O)CO)c1cc(Br)c(F)c(F)c1Nc1ccc(I)cc1F (stereo not given)	91.2 ± 21	82.9 ± 26	91.5 ± 10	63.6 ± 9.8	141 ± 44	102 ± 31	65.3 ± 8.3	98.9 ± 22	142 ± 21	91.9 ± 12	97 ± 9.6	50.6 ± 22	121 ± 22	72.5 ± 3	71.5 ± 9.4	77.6 ± 3.6	113 ± 2.1	74 ± 11	86.4 ± 23	60.1 ± 19	89.1 ± 7.1	85.4 ± 20	76.5 ± 16	69.7 ± 21	112 ± 54	114 ± 25	81.4 ± 5.8	60.5 ± 11	115 ± 34	76.4 ± 27	119 ± 14	51.7 ± 13	110 ± 34	101 ± 20	73.8 ± 9.8	52.1 ± 1.8
